Experimental data: the supplement of paper PMC3334620
The full ranking holds about 33,000 sequences; the median of “E-score (-0.5 to 0.5)” is about -0.016, and the highest 2% start at about 0.3. The list shows a part of the results.

Target: T1, Yer184c (UniProt P39961)
T1 sequence: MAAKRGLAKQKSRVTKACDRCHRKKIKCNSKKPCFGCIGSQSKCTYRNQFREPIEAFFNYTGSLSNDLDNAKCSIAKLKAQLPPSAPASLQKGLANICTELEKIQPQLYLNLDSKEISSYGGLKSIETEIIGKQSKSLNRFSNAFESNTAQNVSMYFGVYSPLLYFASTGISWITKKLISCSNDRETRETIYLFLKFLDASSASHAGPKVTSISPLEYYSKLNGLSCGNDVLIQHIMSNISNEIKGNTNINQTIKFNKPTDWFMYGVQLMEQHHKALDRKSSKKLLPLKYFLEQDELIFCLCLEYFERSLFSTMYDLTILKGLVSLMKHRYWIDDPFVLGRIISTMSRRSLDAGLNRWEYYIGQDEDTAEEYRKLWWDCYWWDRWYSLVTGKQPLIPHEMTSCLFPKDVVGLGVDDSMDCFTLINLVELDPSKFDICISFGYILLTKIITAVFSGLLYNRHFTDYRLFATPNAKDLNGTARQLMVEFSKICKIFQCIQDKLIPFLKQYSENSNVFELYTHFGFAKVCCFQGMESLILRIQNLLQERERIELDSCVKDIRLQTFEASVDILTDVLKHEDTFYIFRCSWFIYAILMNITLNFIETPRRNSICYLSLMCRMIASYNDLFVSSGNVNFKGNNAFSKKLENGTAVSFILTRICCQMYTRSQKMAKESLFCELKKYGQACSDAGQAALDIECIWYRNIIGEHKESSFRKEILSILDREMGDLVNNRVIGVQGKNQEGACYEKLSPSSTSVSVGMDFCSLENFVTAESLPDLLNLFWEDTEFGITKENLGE
Test: PBM E-score (8-mer binding enrichment) (E-score (-0.5 to 0.5)); higher = stronger / more preferred TF binding
Settings: protein concentration: 100 nM; construct: GST-full length
Outline: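 Yeast transcription factors, full-length or as DNA-binding domains, were expressed with a GST tag using PURExpress in vitro transcription/translation. At about 100-200 nM they were applied to universal all-10-mer Agilent arrays, double-stranded by primer extension on fresh or once-stripped slides. Fluorescent anti-GST detected bound protein, and masliner normalised the scans. E-scores for ungapped eight-base words, pooled with reverse complements, came from the Universal PBM Analysis Suite.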

First: AGAATCCA
Second: CGACTCGC
The “PBM E-score” value of the first is higher: -0.0487 for the first, -0.0662 for the second.

Going from GATTAGTA to AAGATATT, the “PBM E-score” value falls from 0.13 to 0.0795.

First: GTATGTTA
Second: GTACCGTA
The “PBM E-score” value of the first is higher: 0.149 for the first, -0.0052 for the second.

Going from CTCTATCA to GATTGGGC, the “PBM E-score” value rises from -0.183 to -0.00977.

Going from GGAAAACA to CAAACGTA, the “PBM E-score” value falls from 0.215 to -0.0672.

Going from ACTGACCT to AGGCTACC, the “PBM E-score” value falls from -0.102 to -0.152.

First: ATGTTTTG
Second: CAGTACGG
The “PBM E-score” value of the first is higher: 0.153 for the first, 0.0218 for the second.

Compared with GCGTCAGC, GCTTGCCC is lower in “PBM E-score” value: -0.202 for the first, -0.297 for the second.

Going from CGCTATAC to GTCTCAGA, the “PBM E-score” value rises from -0.232 to -0.128.

Compared with CGATAAAC, AGGACAAA is higher in “PBM E-score” value: -0.0667 for the first, 0.136 for the second.

Compared with GCGCGATA, TGCAGAAA is higher in “PBM E-score” value: 0.109 for the first, 0.155 for the second.

First: GACCCTGA
Second: AAACCGCA
The “PBM E-score” value of the first is lower: -0.196 for the first, -0.059 for the second.

First: CATCTATC
Second: AGTAGGTG
The “PBM E-score” value of the first is higher: 0.0619 for the first, -0.174 for the second.

Compared with TCGGGACA, CCCGGTTC is higher in “PBM E-score” value: 0.0247 for the first, 0.184 for the second.

Compared with CACGTTCA, AAATTGCA is higher in “PBM E-score” value: -0.0938 for the first, 0.117 for the second.

Going from ATTGAGTC to GTCTACGA, the “PBM E-score” value falls from -0.0225 to -0.2.

First: AGTTGTCC
Second: CGGAACGA
The “PBM E-score” value of the first is lower: 0.0454 for the first, 0.306 for the second.

Going from GTCTAACA to AGCTCCCC, the “PBM E-score” value falls from -0.132 to -0.346.

Compared with ACATATGT, CGATCTGA is higher in “PBM E-score” value: -0.108 for the first, 0.0411 for the second.

First: ACAGCGGC
Second: ACGGTGTC
The “PBM E-score” value of the first is lower: -0.0827 for the first, -0.0501 for the second.

First: GACCGCTC
Second: CTCTCCAG
The “PBM E-score” value of the first is higher: -0.153 for the first, -0.398 for the second.

Going from AAACCCGT to CCGGCTTA, the “PBM E-score” value rises from -0.16 to 0.33.

Compared with GATTCAGA, CCCTACAG is lower in “PBM E-score” value: 0.0809 for the first, -0.327 for the second.

First: ATCTTCAC
Second: ACGCTTCA
The “PBM E-score” value of the first is higher: 0.111 for the first, -0.278 for the second.

Compared with CTATCAAC, GCTTCCCA is lower in “PBM E-score” value: 0.205 for the first, -0.102 for the second.

First: TTAATGAA
Second: CTATGCTA
The “PBM E-score” value of the first is higher: 0.23 for the first, 0.0813 for the second.

Going from AAAGCTTC to ATATCGAT, the “PBM E-score” value falls from 0.108 to 0.045.

Going from ATGTTGAC to CAGGGGGA, the “PBM E-score” value falls from -0.0122 to -0.42.

First: GAGTCTAC
Second: CCTTGCGC
The “PBM E-score” value of the first is higher: -0.121 for the first, -0.193 for the second.

First: CCTACACG
Second: CCAAAGGG
The “PBM E-score” value of the first is lower: -0.269 for the first, -0.126 for the second.

Going from ACAGCAGA to GGACATCC, the “PBM E-score” value falls from 0.0464 to -0.13.

First: CAACTCTC
Second: CCAATCCC
The “PBM E-score” value of the first is higher: -0.0693 for the first, -0.136 for the second.

Going from AAGTTAAC to ACTATCTC, the “PBM E-score” value falls from 0.147 to 0.0285.

First: CGTATGTC
Second: CAGTGCAA
The “PBM E-score” value of the first is lower: -0.0388 for the first, 0.0537 for the second.

Going from GTTTCTAA to TACACCCA, the “PBM E-score” value falls from 0.177 to -0.0433.

First: CAAATTTG
Second: GTTTACTA
The “PBM E-score” value of the first is higher: 0.167 for the first, 0.0747 for the second.

Going from GGCGTTTA to ATAAATTA, the “PBM E-score” value rises from -0.0315 to 0.316.

Going from CACCATAC to GTTGACGA, the “PBM E-score” value rises from -0.114 to -0.00808.

First: ACCAGTCA
Second: ACTGTACT
The “PBM E-score” value of the first is higher: -0.0658 for the first, -0.276 for the second.

Going from ATAATAGG to ATCATGTC, the “PBM E-score” value falls from 0.146 to 0.067.

Compared with CTCTATTA, CAGAGGGG is lower in “PBM E-score” value: -0.154 for the first, -0.286 for the second.

First: AAGGCTAG
Second: CGTTGGCC
The “PBM E-score” value of the first is lower: -0.11 for the first, 0.0758 for the second.

Compared with ACCCTGTA, CTATTTTA is higher in “PBM E-score” value: -0.103 for the first, 0.111 for the second.

Going from ATCGTTAA to CCAACAAG, the “PBM E-score” value falls from 0.0348 to -0.118.

First: CCTGGTAC
Second: AGTGGTCC
The “PBM E-score” value of the first is lower: -0.0559 for the first, -0.0143 for the second.

First: GTAATGTA
Second: CGTTACAG
The “PBM E-score” value of the first is lower: -0.154 for the first, -0.0144 for the second.

Going from GTTACACA to AGGGTTCA, the “PBM E-score” value falls from -0.0438 to -0.0808.
